Laboratory results from PubChem BioAssay AID2685 (National Center for Advancing Translational Sciences (NCATS), 2010).
Some of the results follow. These are further read-outs of the screen, such as a control signal, another cell line or another target. No call is given for them. Most of these compounds were active or inconclusive in the main read-out, so they are no random draw. Potencies come from curve fits of mixed quality, noted in brackets.

Assay: qHTS Assay for Lipid Storage Modulators in Drosophila S3 Cells;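 as to cell number change: cells counted by Cell Tracker Red CMTPX staining in the red channel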
Conditions: BODIPY lipid droplet fluorescence, 18-24 h; for cell number change: measured here: cell count max response, cells fed with added oleic acid
Procedure, shortened: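 Drosophila S3 cells loaded with oleic acid (400 uM, as added) and compounds at several concentrations; lipid droplets imaged by 488-nm laser-scanning cytometry, 500–530 nm intensity and object ratio to cell channel. Percent activity normalized to 20 uM Triacsin C.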

[1] = measured here: lipid fluorescence (Fed channel) AC50, cells fed with added oleic acid
[2] = measured here: cell number channel AC50, cells fed with added oleic acid

SMILES	cell number change [%]	AC50 [1]	AC50 [2]
O=C(CSc1nnc(-c2ccncc2)n1-c1ccc(Cl)cc1)N1CCOCC1	17.3	13 µM [rising, partial curve]	
COC(=O)Nc1nnc(/C=C/c2ccc(OC)cc2)s1	-2.71		
COC(=O)Cc1[nH]nc2c1C(c1c[nH]c3ccccc13)C(C#N)=C(N)O2 (configuration not stated)	-26.6	23.1 µM [falling, single point]	
COc1cccc(NC(=O)C(=O)NCc2ccncc2)c1	-40.6	29.1 µM [falling, single point]	2.06 µM [falling, single point]
Oc1c(Cl)cc(Cl)cc1/C=N/c1ncn[nH]1	-16.7	29.1 µM [rising, single point]	
CC(=O)c1ccc(NC(=O)CN(c2c(C)cccc2C)S(C)(=O)=O)cc1	-20.9		
CC(C)n1c(N2CCN(C(=O)Nc3ccccc3)CC2)nc2ccccc21	-8.21	29.1 µM [falling, single point]	
COc1ccc(C(=O)N2CCCC(C(=O)c3ccccc3OC)C2)cc1OC (configuration not stated)			0.461 µM [falling, single point]
COC(=O)c1nnc(-c2ccccc2)nc1OC			5.17 µM [rising, single point]
Cc1ccc(S(=O)(=O)N2CCCCC2)cc1NC(=O)COC(=O)Cc1cccc2ccccc12	-6.03	2.06 µM [falling, partial curve]	
COc1ccc2cc3cc(C(=O)NC(C)C)oc3nc2c1		2.59 µM [rising, partial curve]	
COC(=O)c1ccc(-n2nnnc2SCC(=O)Nc2ccccc2OC)cc1	6.23	6.51 µM [rising, single point]	
Cc1c(Cl)cccc1NC(=S)NCc1ccc2c(c1)OCO2	38.2		18.4 µM [rising, single point]
CCN(CC)S(=O)(=O)c1ccc(C(=O)NCc2nnc(SCC(=O)OC)n2C)cc1	-43.6	3.26 µM [falling, partial curve, poor fit]	0.0206 µM [falling, full curve]
O=C(O)c1cc([N+](=O)[O-])c(NCc2cccnc2)c([N+](=O)[O-])c1	-10.7		
CCc1ccc(C(=O)COC(=O)c2cnc(C)cn2)cc1		6.51 µM [falling, single point]	
CCOc1cc(S(=O)(=O)Nc2ccccn2)ccc1F	3.59		
Cc1ccc(OC(=O)c2cncc(Br)c2)c(C)c1	4.11		
O=C(CCl)Nc1ccc(N2CCCCCC2)cc1	-33	13 µM [falling, partial curve, poor fit]	20.6 µM [falling, single point]
CCCn1c(CCNC(=O)c2ccco2)nc2ccccc21	17		7.31 µM [rising, partial curve]
Cc1cc2nc(CO)[nH]c2cc1C	19.5	8.2 µM [rising, single point]	
CCN(C(=O)COC(=O)c1ccc(Br)o1)C1CCCCC1	37	29.1 µM [rising, single point]	2.31 µM [rising, full curve]
CC1(C)C(=O)CC[C@]2(C)C3C(=O)C=C4[C@H]5C[C@@](C)(C(=O)O)CC[C@]5(C)CC[C@]4(C)[C@]3(C)CC[C@@H]12 (some centres not stated)		2.91 µM [falling, full curve]	
CC(=O)Nc1ccc(C(=O)Nc2cc(C)on2)cc1	-0.173	1.16 µM [rising, full curve, poor fit]	
Cc1ccc(S(=O)(=O)N(CCC(=O)O)c2ccccc2)cc1	-10.1	2.59 µM [falling, partial curve]	
COc1cccc(C2CC(c3ccc(C)cc3)=NN2C(=O)c2ccccc2F)c1OC (configuration not stated)	61.3	29.1 µM [rising, partial curve]	29.1 µM [rising, single point]
CCCCCC(=O)N/N=C(\C)c1ccc(N2CCCCC2)cc1	-33.4	32.6 µM [falling, single point]	29.1 µM [falling, single point]
Cc1ccc(C)c(NC(=O)c2ccccc2NS(=O)(=O)c2cc([N+](=O)[O-])ccc2C)c1	-16.1	11.6 µM [falling, partial curve]	0.731 µM [falling, partial curve, poor fit]
Cc1cc(C)nc(SC2CC(=O)N(c3ccc(Cl)cc3)C2=O)n1 (configuration not stated)	19.3		0.461 µM [rising, partial curve, poor fit]
CC(=O)N(c1ccc(Cl)cc1)c1nc(C)cc(C)c1C#N	17.4	0.082 µM [rising, partial curve, poor fit]	

Two of the compounds above, with bars between the fields.
SMILES | cell number change [%] | AC50 [1] | AC50 [2]
Oc1c(Cl)cc(Cl)cc1/C=N/c1ncn[nH]1 | -16.7 | 29.1 µM [rising, single point] | 
Cc1ccc(OC(=O)c2cncc(Br)c2)c(C)c1 | 4.11 |  | 
